# Test results from US7435822B2, “3-(diheteroarylmethylene)-8-azabicyclo[3.2.1]octane and 3-((aryl)(heteroaryl)methylene)-8-azabicyclo[3.2.1]octane derivatives” (Janssen Pharmaceutica N.V., priority 2004, dated 2008).
# The chains behind the UniProt entries cited, without tags or fusion partners. Where a name states a change or a piece, a line headed by the entry shows the natural chain unless it says otherwise.
# UniProt P33533, whole entry: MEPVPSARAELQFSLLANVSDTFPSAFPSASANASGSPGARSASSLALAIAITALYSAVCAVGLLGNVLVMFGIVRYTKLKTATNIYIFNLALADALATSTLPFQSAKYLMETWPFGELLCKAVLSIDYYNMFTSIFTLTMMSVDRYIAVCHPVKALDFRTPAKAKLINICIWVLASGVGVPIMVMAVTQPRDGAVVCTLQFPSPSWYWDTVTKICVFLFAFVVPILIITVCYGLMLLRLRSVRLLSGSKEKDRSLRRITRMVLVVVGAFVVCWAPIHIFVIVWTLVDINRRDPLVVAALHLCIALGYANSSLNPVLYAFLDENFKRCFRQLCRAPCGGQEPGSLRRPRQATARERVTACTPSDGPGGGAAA
# At least one compound was matched to its structure with a doubt left.
# Biological target: T1, δ-opioid receptor (Rattus norvegicus, UniProt P33533)
# T1 construct: the forebrains are homogenized in Tris buffer in a Teflon®-glass homogenizer; from tissue; host or cells: rat (male Wistar) forebrain, particulate membrane preparation
# Assay: Rat brain δ-opioid receptor binding assay
# Details: ratio of Ki μ to Ki δ
# Method: Rat Brain δ-Opioid Receptor Binding Assay
# Male, Wistar rats (150-250 g, VAF, Charles River, Kingston, N.Y.) are killed by cervical dislocation, and their brains removed and placed immediately in ice cold Tris HCl buffer (50 mM, pH 7.4). The forebrains are separated from the remainder of the brain by a coronal transection, beginning dorsally at the colliculi and passing ventrally through the midbrain-pontine junction. After dissection, the forebrains are homogenized in Tris buffer in a Teflon®-glass homogenizer. The homogenate is diluted to a concentration of 1 g of forebrain tissue per 100 mL Tris buffer and centrifuged at 39,000×G for 10 min. The pellet is resuspended in the same volume of Tris buffer with several brief pulses from a Polytron homogenizer. […] The tubes and filters are rinsed three times with 4 mL of 10 mM HEPES (pH 7.4), and the radioactivity associated with the filter circles determined using Formula 989 scintillation fluid (New England Nuclear, Boston, Mass.) in a scintillation counter.
# The data are used to calculate either the % inhibition compared to control binding (when only a single concentration of test compound is evaluated) or a Ki value (when a range of concentrations is tested).
# % Inhibition was calculated as follows: […]
# Ki value is calculated using the LIGAND (Munson, P. J. and Rodbard, D., Anal. Biochem. 107: 220-239,1980) data analysis program.
smiles,measurement,value
"Clc1ccccc1CN1C2CCC1CC(=C(c1ccccc1)c1ccsc1)C2 [Example 6, 8-(2-Chloro-benzyl)-3-(phenyl-thiophen-3-yl-methylene)-8-aza-bicyclo[3.2.1]octane]",μ/δ (ratio of the μ-opioid receptor binding to the δ-opioid receptor binding),0.57
